At least one compound was matched to its structure with a doubt left.
Tested on: MycN^AMP regulatory module (Master Regulators, TCM)
Assay: PLATE-Seq with VIPER analysis: reversion of the MycN^AMP master regulator module
Type: cell-based, human
Conditions: SK-N-Be2 cells, IC20, 24 hrs
Source text: Reads were mapped against the human reference genome version Grch38 using the STAR aligner, and used the variance stabilizing transformation from the DESeq2 package for R to normalize each plate. Next, we corrected for batch effect due to having compounds replicates on separate plates. We used the function combat from the sva package for R to compute the batch-corrected normalized gene expression, and fitted a linear model for each compound against the set of DMSO controls on each plate (6 wells per plate per DMSO-treated cells). We used the limma package for R to fit the linear model and to compute p-values and moderated t-statistics for each gene. For each compound, we used a vector of these statistics to generate a gene expression profile of z-scores representing the compound effect as differential between post- and pre-treatment.
Each compound gene expression profile was analyzed using the VIPER algorithm (Alvarez et al. 2016) with TARGET and NRC NBL interactomes, reverse-engineered as described in (Rajbhandari et al. 2018), resulting in two protein activity profiles for each compound that were integrated using Stouffer's z-score method.

CO[C@H]1C[C@@H]2CC[C@@H](C)[C@@](O)(O2)C(=O)C(=O)N2CCCC[C@H]2C(=O)O[C@H]([C@H](C)C[C@@H]2CC[C@@H](O)[C@H](OC)C2)CC(=O)[C@H](C)/C=C(\C)[C@@H](O)[C@@H](OC)C(=O)[C@H](C)C[C@H](C)/C=C/C=C/C=C/1C [rapamycin]
reversion of the MR regulatory module / TCM (VIPER of PLATE-Seq): did not revert the MR signature
